Measured values published in the supplement of paper PMC5836539.
± gives the standard deviation of the averaged measurements. Most values lie within the scatter of the assay; repeated measurements hardly agree.

Chains of the proteins cited; added tags and fusions are not shown. Lines headed by an entry give the natural chain unless they say otherwise; changes in a name come on top.
UniProt P09382, whole entry: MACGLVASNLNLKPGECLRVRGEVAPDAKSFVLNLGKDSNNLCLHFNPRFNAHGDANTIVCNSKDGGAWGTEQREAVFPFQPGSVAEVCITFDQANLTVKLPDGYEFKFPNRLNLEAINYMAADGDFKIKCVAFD
UniProt P46821: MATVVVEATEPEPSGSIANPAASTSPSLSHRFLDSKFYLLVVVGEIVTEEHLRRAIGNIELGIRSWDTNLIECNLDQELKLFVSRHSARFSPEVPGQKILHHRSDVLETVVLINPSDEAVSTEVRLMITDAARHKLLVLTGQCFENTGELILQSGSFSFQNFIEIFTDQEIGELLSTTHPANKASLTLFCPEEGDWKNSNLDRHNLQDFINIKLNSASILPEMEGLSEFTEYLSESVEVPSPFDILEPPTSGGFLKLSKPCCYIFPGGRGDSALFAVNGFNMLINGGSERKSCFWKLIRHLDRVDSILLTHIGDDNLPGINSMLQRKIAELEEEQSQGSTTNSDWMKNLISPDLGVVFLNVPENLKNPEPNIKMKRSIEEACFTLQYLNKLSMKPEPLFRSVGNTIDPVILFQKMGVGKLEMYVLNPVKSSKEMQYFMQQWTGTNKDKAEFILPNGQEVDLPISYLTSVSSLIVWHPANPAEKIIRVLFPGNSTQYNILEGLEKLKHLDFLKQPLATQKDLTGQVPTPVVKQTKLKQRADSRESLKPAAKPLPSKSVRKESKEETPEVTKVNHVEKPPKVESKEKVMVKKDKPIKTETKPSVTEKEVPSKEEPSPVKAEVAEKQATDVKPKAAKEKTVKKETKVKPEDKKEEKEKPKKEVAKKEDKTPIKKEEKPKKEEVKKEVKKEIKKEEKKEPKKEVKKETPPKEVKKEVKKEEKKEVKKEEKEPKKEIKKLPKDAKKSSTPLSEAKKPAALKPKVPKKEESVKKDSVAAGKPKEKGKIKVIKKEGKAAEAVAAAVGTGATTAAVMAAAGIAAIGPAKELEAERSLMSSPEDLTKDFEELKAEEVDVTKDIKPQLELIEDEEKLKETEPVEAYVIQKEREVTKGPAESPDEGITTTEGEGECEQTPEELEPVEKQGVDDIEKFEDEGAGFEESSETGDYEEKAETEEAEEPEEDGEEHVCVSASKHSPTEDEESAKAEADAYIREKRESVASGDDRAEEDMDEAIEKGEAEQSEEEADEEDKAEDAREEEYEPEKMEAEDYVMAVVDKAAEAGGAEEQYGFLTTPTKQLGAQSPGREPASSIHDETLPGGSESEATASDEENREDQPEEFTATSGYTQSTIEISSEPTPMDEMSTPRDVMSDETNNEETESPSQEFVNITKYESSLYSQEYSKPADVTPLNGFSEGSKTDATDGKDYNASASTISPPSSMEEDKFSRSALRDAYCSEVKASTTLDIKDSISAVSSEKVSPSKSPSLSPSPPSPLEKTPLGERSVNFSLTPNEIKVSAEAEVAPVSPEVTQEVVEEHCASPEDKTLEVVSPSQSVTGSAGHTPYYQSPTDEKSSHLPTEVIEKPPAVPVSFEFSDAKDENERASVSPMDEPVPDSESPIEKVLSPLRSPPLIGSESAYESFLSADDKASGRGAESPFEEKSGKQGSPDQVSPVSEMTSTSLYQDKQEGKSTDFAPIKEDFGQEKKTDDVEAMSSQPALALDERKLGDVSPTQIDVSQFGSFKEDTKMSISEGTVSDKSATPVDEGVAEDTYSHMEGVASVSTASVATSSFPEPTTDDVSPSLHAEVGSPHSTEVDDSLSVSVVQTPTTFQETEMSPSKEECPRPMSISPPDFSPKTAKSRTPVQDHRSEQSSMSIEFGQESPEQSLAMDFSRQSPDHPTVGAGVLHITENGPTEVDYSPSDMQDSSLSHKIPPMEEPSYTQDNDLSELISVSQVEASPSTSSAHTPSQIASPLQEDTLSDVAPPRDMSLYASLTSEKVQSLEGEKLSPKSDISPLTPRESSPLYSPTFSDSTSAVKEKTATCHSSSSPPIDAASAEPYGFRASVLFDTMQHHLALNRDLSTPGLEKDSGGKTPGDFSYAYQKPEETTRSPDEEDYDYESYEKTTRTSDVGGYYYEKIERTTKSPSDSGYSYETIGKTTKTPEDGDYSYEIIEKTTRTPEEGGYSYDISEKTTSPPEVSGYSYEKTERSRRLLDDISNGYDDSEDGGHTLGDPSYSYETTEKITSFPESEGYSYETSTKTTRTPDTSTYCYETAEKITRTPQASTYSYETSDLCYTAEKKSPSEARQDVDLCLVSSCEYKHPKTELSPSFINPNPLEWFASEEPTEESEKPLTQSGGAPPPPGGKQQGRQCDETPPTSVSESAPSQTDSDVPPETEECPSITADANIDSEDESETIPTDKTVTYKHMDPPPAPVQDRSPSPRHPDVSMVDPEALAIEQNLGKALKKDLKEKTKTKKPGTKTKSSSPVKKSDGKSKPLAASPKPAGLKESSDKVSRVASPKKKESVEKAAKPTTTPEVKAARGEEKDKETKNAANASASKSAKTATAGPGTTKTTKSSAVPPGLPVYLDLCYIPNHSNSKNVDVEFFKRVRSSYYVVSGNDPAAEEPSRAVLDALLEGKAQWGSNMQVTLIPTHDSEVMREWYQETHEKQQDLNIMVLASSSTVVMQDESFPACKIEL
UniProt Q86UE4: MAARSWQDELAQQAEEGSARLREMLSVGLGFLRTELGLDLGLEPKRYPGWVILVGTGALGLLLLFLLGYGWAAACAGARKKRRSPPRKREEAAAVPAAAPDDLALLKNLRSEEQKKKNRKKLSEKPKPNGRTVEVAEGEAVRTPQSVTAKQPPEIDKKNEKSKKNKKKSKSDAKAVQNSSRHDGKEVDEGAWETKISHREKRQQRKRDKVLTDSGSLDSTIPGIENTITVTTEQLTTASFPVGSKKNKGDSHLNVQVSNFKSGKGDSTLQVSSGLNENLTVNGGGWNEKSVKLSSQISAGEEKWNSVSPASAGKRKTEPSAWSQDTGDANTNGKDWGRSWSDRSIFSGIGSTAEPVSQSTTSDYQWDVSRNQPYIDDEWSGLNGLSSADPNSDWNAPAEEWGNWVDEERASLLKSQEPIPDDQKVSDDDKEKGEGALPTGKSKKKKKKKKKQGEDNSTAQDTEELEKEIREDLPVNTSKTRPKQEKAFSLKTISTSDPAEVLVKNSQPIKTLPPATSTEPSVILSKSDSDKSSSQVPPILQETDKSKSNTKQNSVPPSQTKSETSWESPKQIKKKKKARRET
UniProt Q99733: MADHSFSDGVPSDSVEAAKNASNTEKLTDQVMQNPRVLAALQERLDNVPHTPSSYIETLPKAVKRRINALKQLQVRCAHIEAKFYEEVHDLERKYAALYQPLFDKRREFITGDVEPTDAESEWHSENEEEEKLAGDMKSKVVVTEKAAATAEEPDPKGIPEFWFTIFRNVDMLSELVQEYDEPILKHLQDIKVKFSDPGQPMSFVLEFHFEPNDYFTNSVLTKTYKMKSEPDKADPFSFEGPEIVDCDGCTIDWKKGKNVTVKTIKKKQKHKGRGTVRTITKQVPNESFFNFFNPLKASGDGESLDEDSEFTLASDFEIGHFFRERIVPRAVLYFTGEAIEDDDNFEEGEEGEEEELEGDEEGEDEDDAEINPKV
UniProt P19338, whole entry, looked up: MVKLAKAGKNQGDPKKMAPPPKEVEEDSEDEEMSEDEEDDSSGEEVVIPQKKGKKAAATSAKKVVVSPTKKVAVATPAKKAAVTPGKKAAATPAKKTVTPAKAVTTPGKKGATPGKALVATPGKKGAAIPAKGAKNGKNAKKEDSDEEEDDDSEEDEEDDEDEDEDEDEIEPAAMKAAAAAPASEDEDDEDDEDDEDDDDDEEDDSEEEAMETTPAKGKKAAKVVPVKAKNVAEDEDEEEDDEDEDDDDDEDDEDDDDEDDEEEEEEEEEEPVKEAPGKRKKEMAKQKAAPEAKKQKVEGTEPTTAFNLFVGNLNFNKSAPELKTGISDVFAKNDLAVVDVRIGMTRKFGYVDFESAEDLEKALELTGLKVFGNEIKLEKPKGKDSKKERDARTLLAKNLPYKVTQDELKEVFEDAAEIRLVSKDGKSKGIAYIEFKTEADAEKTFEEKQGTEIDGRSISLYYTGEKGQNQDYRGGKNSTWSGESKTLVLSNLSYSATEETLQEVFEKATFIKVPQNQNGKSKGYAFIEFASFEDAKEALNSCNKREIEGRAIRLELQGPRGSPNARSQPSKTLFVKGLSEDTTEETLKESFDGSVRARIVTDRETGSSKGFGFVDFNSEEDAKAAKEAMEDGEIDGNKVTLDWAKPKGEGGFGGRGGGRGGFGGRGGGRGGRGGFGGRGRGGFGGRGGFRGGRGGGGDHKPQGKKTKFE
UniProt Q15121, whole entry: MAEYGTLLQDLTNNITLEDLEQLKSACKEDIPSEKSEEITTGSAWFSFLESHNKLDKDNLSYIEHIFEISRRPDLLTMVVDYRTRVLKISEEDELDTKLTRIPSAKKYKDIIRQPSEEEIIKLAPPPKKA
UniProt O60825: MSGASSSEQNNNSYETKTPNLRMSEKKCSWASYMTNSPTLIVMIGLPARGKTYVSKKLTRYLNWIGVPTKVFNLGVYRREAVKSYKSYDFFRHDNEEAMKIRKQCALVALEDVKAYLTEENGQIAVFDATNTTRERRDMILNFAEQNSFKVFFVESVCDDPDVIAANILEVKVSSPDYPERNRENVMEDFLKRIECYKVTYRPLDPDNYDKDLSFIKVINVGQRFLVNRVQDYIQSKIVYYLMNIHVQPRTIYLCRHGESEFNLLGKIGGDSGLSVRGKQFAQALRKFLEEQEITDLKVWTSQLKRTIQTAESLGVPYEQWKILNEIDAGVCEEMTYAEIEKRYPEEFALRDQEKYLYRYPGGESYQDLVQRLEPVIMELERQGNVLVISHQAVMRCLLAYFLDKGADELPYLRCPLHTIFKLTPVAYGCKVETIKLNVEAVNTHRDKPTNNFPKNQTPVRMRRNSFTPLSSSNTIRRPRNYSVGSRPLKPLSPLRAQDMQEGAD
UniProt Q96G03: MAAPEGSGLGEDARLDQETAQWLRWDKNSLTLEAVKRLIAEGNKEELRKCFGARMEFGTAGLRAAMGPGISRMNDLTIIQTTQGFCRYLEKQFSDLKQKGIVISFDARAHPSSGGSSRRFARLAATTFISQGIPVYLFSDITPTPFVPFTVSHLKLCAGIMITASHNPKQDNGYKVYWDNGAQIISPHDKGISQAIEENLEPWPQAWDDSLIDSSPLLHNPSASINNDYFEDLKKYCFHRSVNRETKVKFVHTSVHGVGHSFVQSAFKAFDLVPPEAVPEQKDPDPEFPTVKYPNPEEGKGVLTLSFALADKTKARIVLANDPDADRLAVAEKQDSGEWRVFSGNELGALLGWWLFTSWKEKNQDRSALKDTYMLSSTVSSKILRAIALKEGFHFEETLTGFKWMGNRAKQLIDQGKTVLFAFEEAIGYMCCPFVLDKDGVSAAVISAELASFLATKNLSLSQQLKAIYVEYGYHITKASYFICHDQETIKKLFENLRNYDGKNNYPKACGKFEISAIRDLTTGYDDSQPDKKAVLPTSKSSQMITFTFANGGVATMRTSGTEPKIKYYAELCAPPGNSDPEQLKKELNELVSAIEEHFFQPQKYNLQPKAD
UniProt O15173: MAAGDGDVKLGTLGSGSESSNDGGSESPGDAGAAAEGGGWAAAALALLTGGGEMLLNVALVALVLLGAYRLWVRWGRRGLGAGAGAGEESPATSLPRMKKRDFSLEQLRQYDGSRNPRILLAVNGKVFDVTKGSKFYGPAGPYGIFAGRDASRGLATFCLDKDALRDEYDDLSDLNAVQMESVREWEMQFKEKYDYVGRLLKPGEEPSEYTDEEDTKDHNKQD
UniProt Q15435: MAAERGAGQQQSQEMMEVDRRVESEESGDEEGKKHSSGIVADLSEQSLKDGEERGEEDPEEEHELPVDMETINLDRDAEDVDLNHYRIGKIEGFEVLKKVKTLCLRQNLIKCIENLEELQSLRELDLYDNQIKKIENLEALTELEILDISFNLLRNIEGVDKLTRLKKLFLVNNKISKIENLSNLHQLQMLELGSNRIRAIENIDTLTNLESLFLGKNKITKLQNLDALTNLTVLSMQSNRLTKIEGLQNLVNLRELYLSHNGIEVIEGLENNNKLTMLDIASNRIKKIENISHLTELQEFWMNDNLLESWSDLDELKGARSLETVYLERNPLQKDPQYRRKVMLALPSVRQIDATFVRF
UniProt P31323, whole entry: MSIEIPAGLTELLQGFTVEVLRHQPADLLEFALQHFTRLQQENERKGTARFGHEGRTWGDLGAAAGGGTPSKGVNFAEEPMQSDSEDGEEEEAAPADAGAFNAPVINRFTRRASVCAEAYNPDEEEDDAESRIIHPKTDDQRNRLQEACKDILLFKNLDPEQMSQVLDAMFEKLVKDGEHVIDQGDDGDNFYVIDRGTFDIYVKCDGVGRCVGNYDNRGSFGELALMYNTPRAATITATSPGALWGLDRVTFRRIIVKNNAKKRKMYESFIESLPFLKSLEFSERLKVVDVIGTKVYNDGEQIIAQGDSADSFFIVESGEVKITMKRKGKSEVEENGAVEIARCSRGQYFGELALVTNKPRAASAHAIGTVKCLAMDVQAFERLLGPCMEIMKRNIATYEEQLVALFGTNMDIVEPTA

Assays:
XL888 [1] = compound: T1, CC[C@@H](C)Nc1cc(C(=O)N[C@H]2C[C@H]3CC[C@@H](C2)N3c2ccc(C(=O)C3CC3)cn2)c(C)cc1C(N)=O [XL888]; test: phosphopeptide melting temperature shift (XL888 minus DMSO); higher = stabilised by drug treatment; conditions: 100 µM; treatment time 2 h; layout: intact cells; SK-Mel 28
Protocol: (§1)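 Phospho-TPP in intact SK-Mel 28 cells treated with 100 uM XL888 or DMSO for 2 h, heated at 10 temperatures (37-67 C) for 3 min, soluble fraction TMT10plex-labelled and TiO2 phospho-enriched. Melting curves were fitted per phosphopeptide; the value is the melting point difference (drug minus vehicle) in each of two biological replicates.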

XL888 [2] = compound: T1, XL888; test: as above; conditions: 100 µM; treatment time 2 h; layout: intact cells; SK-Mel 24
Protocol: as §1, with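 “24” for “28”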

Row | Target | phosphopeptide melting temperature shift (XL888 [1]) [°C] | phosphopeptide melting temperature shift (XL888 [2]) [°C]
1 | IRF2BP1 phosphosite_453 (phosphosite position: 453) (UniProt Q8IU81) | 2.42 | 3.09
2 | IRS2 phosphosite_915 (phosphosite position: 915) (UniProt Q9Y4H2) | 3.41 | -1.37
3 | IVNS1ABP phosphosite_338 (phosphosite position: 338) (UniProt Q9Y6Y0) | 0.531 | -0.633 ± 0.21
4 | IWS1 phosphosite_377 (phosphosite position: 377) (UniProt Q96ST2) | 1.11 ± 0.34 | -1.54
5 | KLC2 phosphosite_582 (phosphosite position: 582) (UniProt Q9H0B6) | 0.16 ± 0.4 | 0.45
6 | KPNA4 phosphosite_60 (phosphosite position: 60) (UniProt O00629) | 1.67 | -0.621
7 | KRI1 phosphosite_171 (phosphosite position: 171) (UniProt Q8N9T8) | 0.858 ± 0.35 | 0.313
8 | LARP1 phosphosite_90 (phosphosite position: 90) (UniProt Q6PKG0) | 1.63 ± 1.2 | 0.828
9 | LARP7 phosphosite_261 (phosphosite position: 261) (UniProt Q4G0J3) | 1.71 ± 0.51 | 0.339
10 | LGALS1 phosphosite_30 (phosphosite position: 30) (UniProt P09382) | -0.155 | -0.907
11 | LPXN phosphosite_19 (phosphosite position: 19) (UniProt O60711) | 4.62 ± 1 | -1.19
12 | LRWD1 phosphosite_243 (phosphosite position: 243) (UniProt Q9UFC0) | 0.22 ± 0.94 | 0.718
13 | LYST phosphosite_2105 (phosphosite position: 2105) (UniProt Q99698) | 0.742 ± 0.69 | 0.397
14 | MAP1B phosphosite_937 (phosphosite position: 937) (UniProt P46821) | 0.587 ± 0.98 | -0.216
15 | MAP1B phosphosite_1016 (phosphosite position: 1016) (UniProt P46821) | 1.21 ± 0.24 | 1.69
16 | MAP1B phosphosite_1501 (phosphosite position: 1501) (UniProt P46821) | 0.641 ± 1.8 | 1.39
17 | MAP1B phosphosite_1819 (phosphosite position: 1819) (UniProt P46821) | -0.957 ± 0.054 | 2.5
18 | MAP1B phosphosite_1915 (phosphosite position: 1915) (UniProt P46821) | 1.64 ± 1 | 0.093
19 | MAP1B phosphosite_1965 (phosphosite position: 1965) (UniProt P46821) | -1.74 | 1.14 ± 0.44
20 | MATR3 phosphosite_598 (phosphosite position: 598) (UniProt P43243) | 3.68 ± 3.8 | -0.405
21 | MCM2 phosphosite_27 (phosphosite position: 27) (UniProt P49736) | -1.32 ± 0.63 | 2.96
22 | MCM2 phosphosite_139 (phosphosite position: 139) (UniProt P49736) | -0.25 ± 0.069 | -0.589 ± 0.046
23 | MCM3 phosphosite_672 (phosphosite position: 672) (UniProt P25205) | -1.49 | -0.991
24 | MICAL3 phosphosite_685 (phosphosite position: 685) (UniProt Q7RTP6) | 1.28 ± 0.4 | 1.21
25 | MIOS phosphosite_766 (phosphosite position: 766) (UniProt Q9NXC5) | 2.58 ± 0.8 | 0.487
26 | MPHOSPH8 phosphosite_51 (phosphosite position: 51) (UniProt Q99549) | 0.727 | 2.46

Row | Target | phosphopeptide melting temperature shift (XL888 [1]) [°C] | phosphopeptide melting temperature shift (XL888 [2]) [°C]
27 | MTDH phosphosite_426 (phosphosite position: 426) (UniProt Q86UE4) | 2.12 | 1.1
28 | MYH9 phosphosite_1943 (phosphosite position: 1943) (UniProt P35579) | 0.918 ± 0.35 | 0.379
29 | NAP1L4 phosphosite_125 (phosphosite position: 125) (UniProt Q99733) | 0.378 ± 0.85 | 0.0447 ± 0.098
30 | NCAPG phosphosite_674 (phosphosite position: 674) (UniProt Q9BPX3) | 0.915 ± 0.97 | 0.635
31 | NCL phosphosite_67 (phosphosite position: 67) (UniProt P19338) | 2.82 | -0.493 ± 0.18
32 | NCL phosphosite_563 (phosphosite position: 563) (UniProt P19338) | -0.0516 ± 1.1 | 1.76
33 | NCL phosphosite_619 (phosphosite position: 619) (UniProt P19338) | -1.33 | 0.0511
34 | NKAP phosphosite_149 (phosphosite position: 149) (UniProt Q8N5F7) | -0.281 ± 1.8 | 0.515 ± 0.46
35 | NPM1 phosphosite_70 (phosphosite position: 70) (UniProt P06748) | -0.911 ± 0.21 | -1.48
36 | NSUN2 phosphosite_743 (phosphosite position: 743) (UniProt Q08J23) | -0.581 ± 3.3 | 0.454
37 | NSUN2 phosphosite_751 (phosphosite position: 751) (UniProt Q08J23) | 1.32 ± 0.77 | 3.37
38 | PAK1 phosphosite_174 (phosphosite position: 174) (UniProt Q13153) | 1.69 ± 0.47 | 1.32
39 | PAK4 phosphosite_474 (phosphosite position: 474) (UniProt O96013) | -0.412 ± 0.92 | -1.409 ± 0.0065
40 | PDLIM4 phosphosite_112 (phosphosite position: 112) (UniProt P50479) | 1.6 | 1.36
41 | PDLIM4 phosphosite_120 (phosphosite position: 120) (UniProt P50479) | -2.17 | 0.427 ± 0.71
42 | PEA15 phosphosite_116 (phosphosite position: 116) (UniProt Q15121) | -0.00752 ± 0.19 | 0.161 ± 0.12
43 | PFKFB2 phosphosite_483 (phosphosite position: 483) (UniProt O60825) | -0.218 ± 0.34 | 0.0408 ± 0.56
44 | PGK1 phosphosite_203 (phosphosite position: 203) (UniProt P00558) | 7.15e-05 ± 0.12 | -0.0654
45 | PGM2 phosphosite_165 (phosphosite position: 165) (UniProt Q96G03) | -0.195 | 0.266 ± 1.7
46 | PGRMC2 phosphosite_211 (phosphosite position: 211) (UniProt O15173) | 1.54 ± 1.4 | -0.977
47 | POLR3G phosphosite_157 (phosphosite position: 157) (UniProt O15318) | 0.262 ± 0.8 | 2.51
48 | PPFIBP2 phosphosite_387 (phosphosite position: 387) (UniProt Q8ND30) | 0.622 ± 0.15 | 0.354 ± 0.053
49 | PPP1R7 phosphosite_27 (phosphosite position: 27) (UniProt Q15435) | 0.135 ± 0.75 | -0.693
50 | PRKAR1A phosphosite_83 (phosphosite position: 83) (UniProt P10644) | 0.769 ± 0.5 | 0.0224 ± 0.0057
51 | PRKAR2A phosphosite_99 (phosphosite position: 99) (UniProt P13861) | 1.04 ± 1.4 | 0.255 ± 0.079
52 | PRKAR2B phosphosite_114 (phosphosite position: 114) (UniProt P31323) | 0.635 ± 2.2 | 0.104

Another view of some results above.

| Row | Target | phosphopeptide melting temperature shift (XL888 [1]) [°C] | phosphopeptide melting temperature shift (XL888 [2]) [°C] |
| --- | --- | --- | --- |
| 33 | NCL phosphosite_619 (phosphosite position: 619) (UniProt P19338) | -1.33 | 0.0511 |
| 50 | PRKAR1A phosphosite_83 (phosphosite position: 83) (UniProt P10644) | 0.769 ± 0.5 | 0.0224 ± 0.0057 |
